# Experimental data taken from paper PMC8480849.
# No constants are given. Whether binding was seen depends on the method and setting. Binding seen in cells or lysates may run through a third protein. Some binding calls cover weakened binding; strength is not graded here.
# Assays:
# Test in all cases: co-IP; fresh half brains of 3-month-old wild-type male mice lysed in RIPA lysis buffer; 1 ml extract with 2 ug antibody at 4°C for 1 h, protein G agarose beads 30 min, three washes with bead buffer, Western blot; GAPDH as negative control
# [1] = target: Dual-specificity Tyrosine-(Y)-phosphorylation-Regulated Kinase 1A (DYRK1A) (mouse (endogenous in mouse brain)) (UniProt Q61214)
# [2] = target: GLUN2B (NR2B), subunit of the glutamatergic postsynaptic NMDA receptor (mouse (endogenous in mouse brain)) (UniProt Q01097)
# [3] = target: T1, SYNGAP (mouse (endogenous in mouse brain)) (UniProt F6SEU4)
# T1 sequence: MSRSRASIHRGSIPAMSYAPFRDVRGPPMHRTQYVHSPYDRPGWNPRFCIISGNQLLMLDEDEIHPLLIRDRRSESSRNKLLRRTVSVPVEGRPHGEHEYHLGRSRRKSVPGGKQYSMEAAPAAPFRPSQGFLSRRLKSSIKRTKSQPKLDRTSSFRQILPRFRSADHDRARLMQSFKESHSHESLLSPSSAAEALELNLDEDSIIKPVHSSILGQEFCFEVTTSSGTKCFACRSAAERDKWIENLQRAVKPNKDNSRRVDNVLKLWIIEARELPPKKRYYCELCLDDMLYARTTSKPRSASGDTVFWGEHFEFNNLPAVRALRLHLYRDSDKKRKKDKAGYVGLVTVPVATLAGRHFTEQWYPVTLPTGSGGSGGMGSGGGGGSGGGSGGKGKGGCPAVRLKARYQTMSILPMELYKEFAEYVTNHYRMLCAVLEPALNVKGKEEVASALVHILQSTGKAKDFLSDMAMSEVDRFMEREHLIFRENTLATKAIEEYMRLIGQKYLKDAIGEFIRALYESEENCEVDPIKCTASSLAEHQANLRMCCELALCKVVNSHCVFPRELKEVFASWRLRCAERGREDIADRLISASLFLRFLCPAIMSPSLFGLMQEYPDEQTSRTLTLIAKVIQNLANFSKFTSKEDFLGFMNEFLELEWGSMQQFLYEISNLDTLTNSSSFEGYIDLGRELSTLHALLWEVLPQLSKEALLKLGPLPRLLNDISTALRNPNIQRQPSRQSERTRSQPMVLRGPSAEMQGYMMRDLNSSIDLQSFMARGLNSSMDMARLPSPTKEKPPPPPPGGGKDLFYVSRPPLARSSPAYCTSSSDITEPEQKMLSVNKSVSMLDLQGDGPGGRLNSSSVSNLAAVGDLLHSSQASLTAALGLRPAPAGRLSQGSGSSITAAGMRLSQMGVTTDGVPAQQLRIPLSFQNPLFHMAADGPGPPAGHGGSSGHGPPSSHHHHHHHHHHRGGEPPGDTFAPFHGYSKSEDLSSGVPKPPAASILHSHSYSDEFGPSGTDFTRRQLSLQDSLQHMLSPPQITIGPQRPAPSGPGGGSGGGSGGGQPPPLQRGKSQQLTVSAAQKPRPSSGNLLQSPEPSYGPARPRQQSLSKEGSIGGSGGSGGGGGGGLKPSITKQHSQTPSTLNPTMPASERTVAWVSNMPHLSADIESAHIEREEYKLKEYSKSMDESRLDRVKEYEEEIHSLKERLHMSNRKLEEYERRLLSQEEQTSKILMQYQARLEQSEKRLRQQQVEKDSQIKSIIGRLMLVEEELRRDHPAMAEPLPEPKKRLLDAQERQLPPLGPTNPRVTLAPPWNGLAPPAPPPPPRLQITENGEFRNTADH
Substance,binding [1],binding [2],binding [3]
"CAMK2A, a subunit of the calcium/calmodulin-dependent protein kinase II (CAMK2) (from UniProt P11798 1-478)",binds,,
Dual-specificity Tyrosine-(Y)-phosphorylation-Regulated Kinase 1A (DYRK1A) (from UniProt Q61214 1-763),,binds,binds
"GLUN2B (NR2B), subunit of the glutamatergic postsynaptic NMDA receptor (from UniProt Q01097 27-1482)",binds,,
